Here are results for 3 substances from paper PMC6720194.

The chains behind the UniProt entries cited, without tags or fusion partners. Where a name states a change or a piece, a line headed by the entry shows the natural chain unless it says otherwise. A line that says so, or that is headed by a name, gives the form on record, which may keep a tag or linker.
SUMO2-Ubl (P61956, form named): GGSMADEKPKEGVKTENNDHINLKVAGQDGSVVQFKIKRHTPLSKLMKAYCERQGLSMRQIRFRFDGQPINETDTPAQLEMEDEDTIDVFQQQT
SUMO2-Ubl G24A G27V (P61956, form named): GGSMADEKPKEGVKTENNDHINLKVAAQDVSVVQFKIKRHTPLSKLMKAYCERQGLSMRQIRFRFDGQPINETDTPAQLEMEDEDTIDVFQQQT
SUMO2-Ubl G27V (P61956, form named): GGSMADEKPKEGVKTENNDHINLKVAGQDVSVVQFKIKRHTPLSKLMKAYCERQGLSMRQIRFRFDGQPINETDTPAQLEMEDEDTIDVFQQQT

Results are given in words; binding and its absence hold for the method and conditions named.

Among the targets are SUMO2-Ubl (UniProt P61956); SUMO2-Ubl G24A G27V (UniProt P61956); SUMO2-Ubl G27V (UniProt P61956).
What all share (test): SEC; analytical gel filtration, Superdex 75 10/300, 25 mM Tris-HCl pH 7.6, 150 mM NaCl, 1 mM DTT, constant flow-rate, 4°C; self-association (monomer or dimer); both purified

For “SUMO2-Ubl (from UniProt P61956 1-91) (domain or fragment)”, the binding entry with SUMO2-Ubl is reported as “no binding”.

For the substance “SUMO2-Ubl G24A G27V (from UniProt P61956 1-91) (domain or fragment)”, the binding entry with SUMO2-Ubl G24A G27V was “no binding”.

Turning to “SUMO2-Ubl G27V (from UniProt P61956 1-91) (domain or fragment)”, the binding result with SUMO2-Ubl G27V is reported as “no binding”.
